# Measurements from patent US4129659A, “Method for improving cardiovascular function with salinomycin” (The University of Miami, priority 1977, dated 1978).
# For at least one compound, name, drawing or mass did not settle the structure.
# Test system: heart and coronary circulation of anesthetized dogs
# Assay: Physiological effects of ionophores in anesthetized dogs: inotropic and coronary flow potency relative to lasalocid
# Assay type: in vivo, dog
# Procedure: Extended experimental studies were conducted involving a number of ionophores.
# ^1 Studies conducted on anesthetized dogs.
# ^2 Ionotropic potencies are expressed as the reciprocal of the dose
# required to double dP/dt Max., relative to the dose of Lasolocid required
# ^3 Coronary flow potency is calculated as the inotropic potency,
# normalized for coronary flow by the factor: coronary flow increased
# produced by doubling dose of the test ionophore/coronary flow produced by
# the doubling dose of Lasalocid.
row,Compound,Ratio 2/1 (coronary flow potency / inotropic potency)
1,COC1CCC(OC2C(C)C(O)(C(C)C(=O)O)OC(CC3CC(OC)C(C)C4(O3)OC(C)(C3CCC(C5CCC(C6OC(C)(O)C(C)C(OC)C6C)O5)O3)C(OC)C4C)C2(C)OC)OC1C (centres unmarked) [A-204],1.1
2,CC[C@@H]1O[C@@H]([C@]2(C)C[C@@H](C)[C@](O)([C@]3(C)CC[C@@H]([C@@H](O)[C@]4(O)O[C@H](C[C@@]5(O)O[C@@H]([C@@H](C)[C@H](O)C[C@H]6CC[C@H](C)[C@@H]([C@@H](C)C(=O)O)O6)CC[C@@H]5C)[C@@H](C)C[C@H]4C)O3)O2)CC[C@@]1(C)O [X-206],1.1
